Substitutions are numbered along the chain they refer to. In names and notes the source's numbering stands. No constants are given. Whether binding was seen depends on the method and setting. Binding seen in cells or lysates may run through a third protein. Some results given as binding are weak or reduced against the parent protein; the word gives no strength.
Experiments:
[1] = target: G3BP1, mouse (mouse (endogenous in primary mouse fibroblasts)) (UniProt P97855); assay: co-IP; cytoplasmic and nuclear fractions (NE-PER) of primary mouse fibroblasts; lysates incubated with anti-FUS or anti-G3BP1 antibody overnight at 4 °C, protein G agarose 2 h at 4 °C; blotted with anti-LRSAM1; IgG as negative control
[2] = target: FUS, mouse (mouse (endogenous in primary mouse fibroblasts)) (UniProt P56959); assay: as above

Chains of the proteins cited; added tags and fusions are not shown.
UniProt P97855: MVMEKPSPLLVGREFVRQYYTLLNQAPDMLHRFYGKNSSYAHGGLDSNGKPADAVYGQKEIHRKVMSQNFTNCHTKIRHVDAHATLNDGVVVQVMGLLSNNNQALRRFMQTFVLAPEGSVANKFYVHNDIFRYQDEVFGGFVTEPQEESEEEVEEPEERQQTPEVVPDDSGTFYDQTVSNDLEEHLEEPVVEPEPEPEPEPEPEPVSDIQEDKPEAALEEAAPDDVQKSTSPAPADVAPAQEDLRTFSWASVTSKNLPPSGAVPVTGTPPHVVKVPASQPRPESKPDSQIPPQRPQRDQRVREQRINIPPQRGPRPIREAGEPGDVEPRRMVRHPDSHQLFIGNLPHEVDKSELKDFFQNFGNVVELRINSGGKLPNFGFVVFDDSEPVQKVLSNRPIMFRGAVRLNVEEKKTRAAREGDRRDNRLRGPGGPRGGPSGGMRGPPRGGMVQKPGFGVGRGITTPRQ
UniProt P56959: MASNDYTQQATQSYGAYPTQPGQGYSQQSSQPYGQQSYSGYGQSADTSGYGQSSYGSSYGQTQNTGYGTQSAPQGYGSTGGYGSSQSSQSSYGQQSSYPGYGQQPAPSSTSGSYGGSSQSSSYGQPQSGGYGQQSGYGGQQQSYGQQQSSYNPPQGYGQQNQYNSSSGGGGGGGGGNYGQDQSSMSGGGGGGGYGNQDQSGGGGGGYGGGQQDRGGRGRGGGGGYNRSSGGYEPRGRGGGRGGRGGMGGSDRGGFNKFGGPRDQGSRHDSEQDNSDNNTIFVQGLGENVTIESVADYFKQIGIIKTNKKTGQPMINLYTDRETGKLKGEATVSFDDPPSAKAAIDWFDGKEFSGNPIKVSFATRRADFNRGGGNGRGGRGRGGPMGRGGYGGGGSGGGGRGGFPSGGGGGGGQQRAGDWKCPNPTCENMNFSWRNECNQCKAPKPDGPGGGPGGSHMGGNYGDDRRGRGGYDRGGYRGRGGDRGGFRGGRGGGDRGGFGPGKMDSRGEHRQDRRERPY

B1: LRSAM1 (leucine rich repeat and sterile alpha motif 1), wild type, mouse (protein, UniProt Q80ZI6 1-727)
chain: MPLFFRKRKPSEEARKRLEYQMCLAKEAGADDILDISKCELSEIPFGAFATCKVLQKKVLIVHTNHLTSLLPKSCSLLSLVTIKVLDLHENQLTALPDDMGQLTVLQVLNVERNQLTHLPRSIGNLLQLQTLNVKDNKLKELPDTLGELRSLRTLDISENEIQRLPQMLAHVRTLETLSLNALAMVYPPPEVCGAGTAAVQQFLCKESGLDYYPPSQYLLPVLEQDGAENTQDSPDGPASRFSREEAEWQNRFSDYEKRKEQKMLEKLEFERRLDLGQREHAELLQQSHSHKDEILQTVKQEQTRLEQDLSERQRCLDAERQQLQEQLKQTEQSIASRIQRLLQDNQRQKKSSEILKSLENERIRMEQLMSITQEETENLRQREIAAAMQQMLTESCKSRLIQMAYESQRQSLAQQACSSMAEMDKRFQQILSWQQMDQNKAISQILQESVMQKAAFEALQVKKDLMHRQIRNQIRLIETELLQLTQLELKRKSLDTETLQEMVSEQRWALSNLLQQLLKEKKQREEELHGILAELEAKSETKQENYWLIQYQRLLNQKPLSLKLQEEGMERRLVALLVELSAEHYLPLFAHHRISLDMLSRMSPGDLAKVGVSEAGLQHEILRRAQDLLAVPRVQPELKPLENEVLGALEPPTAPRELQESVRPSAPPAELDMPTSECVVCLEREAQMVFLTCGHVCCCQQCCQPLRTCPLCRQEISQRLRIYHSS
Q: Which binding [1] does the source give for B1 here?
A: binds

Q: And the binding [2]?
A: binds

B2: LRSAM1 C698R, mouse (knock-in mutant) (protein, UniProt Q80ZI6 1-727)
chain: B1 chain with C698R
Q: How did the binding [1] turn out when B2 was run?
A: binds

Q: What about the binding [2] of the same binder?
A: binds
